Experimental findings from patent US6495144 are described below.

The chains behind the UniProt entries cited, without tags or fusion partners. Residues count along the entry.
UniProt Q06330: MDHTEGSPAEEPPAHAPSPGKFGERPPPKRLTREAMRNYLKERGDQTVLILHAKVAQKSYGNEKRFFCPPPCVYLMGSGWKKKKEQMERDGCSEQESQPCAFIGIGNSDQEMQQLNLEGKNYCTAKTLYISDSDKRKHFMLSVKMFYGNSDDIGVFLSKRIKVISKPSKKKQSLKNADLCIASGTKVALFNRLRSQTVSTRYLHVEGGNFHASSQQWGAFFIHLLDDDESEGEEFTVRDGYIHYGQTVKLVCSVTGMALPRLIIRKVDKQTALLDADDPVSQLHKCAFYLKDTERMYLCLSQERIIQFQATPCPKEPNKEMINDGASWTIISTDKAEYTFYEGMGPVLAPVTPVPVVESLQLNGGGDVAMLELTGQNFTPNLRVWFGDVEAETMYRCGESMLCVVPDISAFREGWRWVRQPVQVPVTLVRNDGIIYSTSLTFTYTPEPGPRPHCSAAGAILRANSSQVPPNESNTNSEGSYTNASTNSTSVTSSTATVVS
UniProt Q69022, residues 216-392: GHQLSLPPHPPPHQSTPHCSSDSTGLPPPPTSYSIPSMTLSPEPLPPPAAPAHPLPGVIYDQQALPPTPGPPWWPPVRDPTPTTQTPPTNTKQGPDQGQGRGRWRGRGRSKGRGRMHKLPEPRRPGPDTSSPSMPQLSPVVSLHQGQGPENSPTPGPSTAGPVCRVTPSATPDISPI
UniProt P12978, residues 252-425: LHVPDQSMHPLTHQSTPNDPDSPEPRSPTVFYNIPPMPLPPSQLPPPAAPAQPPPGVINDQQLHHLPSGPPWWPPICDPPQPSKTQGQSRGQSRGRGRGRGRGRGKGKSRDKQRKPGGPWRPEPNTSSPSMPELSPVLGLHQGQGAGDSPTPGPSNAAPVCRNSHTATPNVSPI

No constants are given. Whether binding was seen depends on the method and setting. Some entries that bind do so weakly or less than the wild type.

The assay concerns the target CBF1/RBPJk (UniProt Q06330). Briefly: EMSA, in vitro translated peptide and CBF1. (In general: A gel shift assay detects complexes by their altered migration in electrophoresis.)

For “type B EBNA2 comprising amino acids 216-392 (from UniProt Q69022 216-392)”, the binding entry is “binds”. With “wild-type EBNA2 peptide comprised of amino acids 252-425 (type A) (from UniProt P12978 252-425)”, the binding entry is given as “binds”.
